Measured values from patent publication US20070060566A1, “Benzazepine derivatives as histamine h3 antagonists” (priority 2003, published 2007).
Some results were stated once for a whole list of compounds, not compound by compound.

Protein sequences, listed by entry. Tags and fused reporters are not part of them. Lines headed by an entry give the natural chain unless they say otherwise; changes in a name come on top.
UniProt Q9Y5N1: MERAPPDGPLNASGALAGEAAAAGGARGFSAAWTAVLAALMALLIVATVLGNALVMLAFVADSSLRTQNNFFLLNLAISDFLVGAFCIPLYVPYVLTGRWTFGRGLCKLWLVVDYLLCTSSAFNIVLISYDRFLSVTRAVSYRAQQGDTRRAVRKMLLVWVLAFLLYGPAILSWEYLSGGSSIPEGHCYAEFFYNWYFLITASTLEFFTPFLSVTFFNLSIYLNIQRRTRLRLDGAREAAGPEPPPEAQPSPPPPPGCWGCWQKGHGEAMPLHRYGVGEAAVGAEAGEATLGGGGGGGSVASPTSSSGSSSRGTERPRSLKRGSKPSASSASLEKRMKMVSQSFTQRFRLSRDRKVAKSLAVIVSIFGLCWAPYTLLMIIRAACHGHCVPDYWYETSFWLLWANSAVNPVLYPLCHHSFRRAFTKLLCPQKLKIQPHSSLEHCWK

Molecular target: T1, human histamine H3 receptor (Homo sapiens, UniProt Q9Y5N1)
T1 construct: expressed in transfected cells; host or cells: CHO K1 cells carrying the pSwitch regulatory plasmid, transfected with pGeneH3, induced with mifepristone; clone 3H3
Test: Histamine H3 functional antagonist assay ([35S]GTPγS SPA on membranes)
Type: biochemical
Details: membranes of CHO K1 cells expressing human histamine H3; histamine 0.3 μM
From the text: A membrane preparation containing histamine H3 receptors may be prepared in accordance with the following procedures:
(i) Generation of Histamine H3 Cell Line
DNA encoding the human histamine H3 gene (Huvar, A. et al. (1999) Mol. Pharmacol. 55(6), 1101-1107) was cloned into a holding vector, pCDNA3.1 TOPO (InVitrogen) and its cDNA was isolated from this vector by restriction digestion of plasmid DNA with the enzymes BamH1 and Not-1 and ligated into the inducible expression vector pGene (InVitrogen) digested with the same enzymes. The GeneSwitch™ system (a system where in transgene expression is switched off in the absence of an inducer and switched on in the presence of an inducer) was performed as described in U.S. Pat. Nos. 5,364,791; 5,874,534; and 5,935,934. Ligated DNA was transformed into competent DH5α E. coli host bacterial cells and plated onto Luria Broth (LB) agar containing Zeocin™ (an antibiotic which allows the selection of cells expressing the sh ble gene which is present on pGene and pSwitch) at 50 μg ml^−1. Colonies containing the re-ligated plasmid were identified by restriction analysis. DNA for transfection into mammalian cells was prepared from 250 ml cultures of the host bacterium containing the pGeneH3 plasmid and isolated using a DNA preparation kit (Qiagen Midi-Prep) as per manufacturers guidelines (Qiagen).
CHO K1 cells previously transfected with the pSwitch regulatory plasmid (InVitrogen) were seeded at 2×10e6 cells per T75 flask in Complete Medium, containing Hams F12 (GIBCOBRL, Life Technologies) medium supplemented with 10% v/v dialysed foetal bovine serum, L-glutamine, and hygromycin (100 μg ml^−1), 24 hours prior to use. Plasmid DNA was transfected into the cells using Lipofectamine plus according to the manufacturers guidelines (InVitrogen). 48 hours post transfection cells were placed into complete medium supplemented with 500 μg ml^−1 Zeocin™.
10-14 days post selection 10 nM Mifepristone (InVitrogen), was added to the culture medium to induce the expression of the receptor. 18 hours post induction cells were detached from the flask using ethylenediamine tetra-acetic acid (EDTA; 1:5000; InVitrogen), following several washes with phosphate buffered saline pH 7.4 and resuspended in Sorting Medium containing Minimum Essential Medium (MEM), without phenol red, and supplemented with Earles salts and 3% Foetal Clone II (Hyclone). Approximately 1×10e7 cells were examined for receptor expression by staining with a rabbit polyclonal antibody, 4a, raised against the N-terminal domain of the histamine H3 receptor, incubated on ice for 60 minutes, followed by two washes in sorting medium. Receptor bound antibody was detected by incubation of the cells for 60 minutes on ice with a goat anti rabbit antibody, conjugated with Alexa 488 fluorescence marker (Molecular Probes). Following two further washes with Sorting Medium, cells were filtered through a 50 μm Filcon™ (BD Biosciences) and then analysed on a FACS Vantage SE Flow Cytometer fitted with an Automatic Cell Deposition Unit. Control cells were non-induced cells treated in a similar manner. Positively stained cells were sorted as single cells into 96-well plates, containing Complete Medium containing 500 μg ml^−1 Zeocin™ and allowed to expand before reanalysis for receptor expression via antibody and ligand binding studies. One clone, 3H3, was selected for membrane preparation.
(ii) Membrane Preparation from Cultured Cells
All steps of the protocol are carried out at 4° C. and with pre-cooled reagents. The cell pellet is resuspended in 10 volumes of buffer A2 containing 50 mM N-2-hydroxyethylpiperazine-N′-2-ethanesulfonic acid (HEPES) (pH 7.40) supplemented with 10e-4M leupeptin (acetyl-leucyl-leucyl-arginal; Sigma L2884), 25 μg/ml bacitracin (Sigma B0125), 1 mM ethylenediamine tetra-acetic acid (EDTA), 1 mM phenylmethylsulfonyl fluoride (PMSF) and 2×10e-6M pepstain A (Sigma). […]

Antagonism (pKb), > 6.5 pKb:
Cc1cnc(C(=O)Nc2ccc3c(c2)CCN(C2CCC2)CC3)cn1 [Example 82, N-(3-Cyclobutyl-2,3,4,5-tetrahydro-1H-3-benzazepin-7-yl)-5-methyl-2-pyrazinecarboxamide]
O=C(Nc1ccc2c(c1)CCN(C1CCC1)CC2)c1cnon1 [Example 17, N-(3-Cyclobutyl-2,3,4,5-tetrahydro-1H-3-benzazepin-7-yl)-1,2,5-oxadiazole-3-carboxamide]
O=C(Nc1ccc2c(c1)CCN(C1CCC1)CC2)Nc1ccc2c(c1)OCO2 [Example 131, N-1,3-Benzodioxol-5-yl-N′-(3-cyclobutyl-2,3,4,5-tetrahydro-1H-3-benzazepin-7-yl)urea]
O=C(Nc1ccc2c(c1)CCN(C1CCC1)CC2)c1ccc(N2CCOCC2)nc1 [Example 44, N-(3-Cyclobutyl-2,3,4,5-tetrahydro-1H-3-benzazepin-7-yl)-6-(4-morpholinyl)-3-pyridinecarboxamide]
O=C(/C=C/c1cccc(F)c1)Nc1ccc2c(c1)CCN(C1CCC1)CC2.O=C(O)C(F)(F)F [Example 260, (2E)-N-(3-Cyclobutyl-2,3,4,5-tetrahydro-1H-3-benzazepin-7-yl)-3-(3-fluorophenyl)-2-propenamide trifluoroacetate]
O=C(Nc1ccc2c(c1)CCN(C1CCC1)CC2)c1csc2ccccc12.O=C(O)C(F)(F)F [Example 193, N-(3-Cyclobutyl-2,3,4,5-tetrahydro-1H-3-benzazepin-7-yl)-1-benzothiophene-3-carboxamide trifluoroacetate]
O=C(Nc1ccc2c(c1)CCN(C1CCC1)CC2)c1ccon1 [Example 18, N-(3-Cyclobutyl-2,3,4,5-tetrahydro-1H-3-benzazepin-7-yl)-3-isoxazolecarboxamide]
O=C(Nc1ccc2c(c1)CCN(C1CCC1)CC2)c1ccc(-n2ccnc2)cc1 [Example 58, N-(3-Cyclobutyl-2,3,4,5-tetrahydro-1H-3-benzazepin-7-yl)-4-(1H-imidazol-1-yl)benzamide]
O=C(Nc1ccc2c(c1)CCN(C1CCC1)CC2)c1cccc(N2CCCS2(=O)=O)c1 [Example 92, N-(3-Cyclobutyl-2,3,4,5-tetrahydro-1H-3-benzazepin-7-yl)-3-(1,1-dioxido-2-isothiazolidinyl)benzamide]
O=C(Nc1ccc2c(c1)CCN(C1CCC1)CC2)c1cc(-c2ccco2)[nH]n1.O=C(O)C(F)(F)F [Example 264, N-(3-Cyclobutyl-2,3,4,5-tetrahydro-1H-3-benzazepin-7-yl)-5-(2-furanyl)-1H-pyrazole-3-carboxamide trifluoroacetate]
CCCc1cc(C(=O)Nc2ccc3c(c2)CCN(C2CCC2)CC3)n(C)n1.O=C(O)C(F)(F)F [Example 190, N-(3-Cyclobutyl-2,3,4,5-tetrahydro-1H-3-benzazepin-7-yl)-1-methyl-3-propyl-1H-pyrazole-5-carboxamide trifluoroacetate]
O=C(Nc1ccc2c(c1)CCN(C1CCC1)CC2)C1=Cc2ccccc2OC1.O=C(O)C(F)(F)F [Example 210, N-(3-Cyclobutyl-2,3,4,5-tetrahydro-1H-3-benzazepin-7-yl)-2H-chromene-3-carboxamide trifluoroacetate]
O=C(Nc1ccc2c(c1)CCN(C1CCC1)CC2)c1ccc2nccnc2c1 [Example 31, N-(3-Cyclobutyl-2,3,4,5-tetrahydro-1H-3-benzazepin-7-yl)-6-quinoxalinecarboxamide]
Cc1nn(-c2ccc(F)cc2)c(C)c1C(=O)Nc1ccc2c(c1)CCN(C1CCC1)CC2.O=C(O)C(F)(F)F [Example 222, N-(3-Cyclobutyl-2,3,4,5-tetrahydro-1H-3-benzazepin-7-yl)-1-(4-fluorophenyl)-3,5-dimethyl-1H-pyrazole-4-carboxamide trifluoroacetate]
